Results reported in paper PMC11933829.
No constants are given. Whether binding was seen depends on the method and setting. Binding can be weak; no strength is given. For some assays here: Where a sequence is shown, tags or fusion partners need not be part of it. For some assays here: Binding seen in cells or lysates may run through a third protein.

Columns and labels:
[1] = biological target: OsMYB73 (yeast two-hybrid fusion) (rice (Oryza sativa)); experiment: two-hybrid; yeast two-hybrid in yeast cells; bait and prey not stated for the interaction assay
[2] = biological target: OsMYB73-nLuc (rice (Oryza sativa)); experiment: split reporter; luciferase complementation imaging (LCI): OsMYB73-nLuc and OsNF-YB1-cLuc in Nicotiana benthamiana leaf cells
[3] = biological target: OsMYB73-VN173 (rice (Oryza sativa)); experiment: split reporter; BiFC: OsMYB73-VN173 and OsNF-YB1-VC155 in tobacco leaf cells; overnight in the dark at 25 °C; fluorescence microscopy

Row | binding [1] | Molecule | also measured
1 | binds | OsLTPL36 (yeast two-hybrid fusion) (from UniProt Q10KV4) | 
2 | binds | OsYUC11 (yeast two-hybrid fusion) (from UniProt A0A0P0Y7T8) | 
3 | binds | OsNF-YB1 (yeast two-hybrid fusion) (protein, UniProt Q6Z348 1-186) MAGNKKRGGRNMDQVKKAAVRSDGVGGSATNAELPMANLVRLIKKVLPGKAKIGGAAKGLTHDCAVEFVGFVGDEASEKAKAEHRRTVAPEDYLGSFGDLGFDRYVDPMDAYIHGYREFERAGGNRRVAPPPPAAATPLTPGGPTFTDAELQFLRSVIPSRSDDEYSGSSPAIGGYGYGYGYGKNM | 
4 |  | OsNF-YB1-cLuc (protein, UniProt Q6Z348 1-186) MAGNKKRGGRNMDQVKKAAVRSDGVGGSATNAELPMANLVRLIKKVLPGKAKIGGAAKGLTHDCAVEFVGFVGDEASEKAKAEHRRTVAPEDYLGSFGDLGFDRYVDPMDAYIHGYREFERAGGNRRVAPPPPAAATPLTPGGPTFTDAELQFLRSVIPSRSDDEYSGSSPAIGGYGYGYGYGKNM | binding [2]: binds
5 |  | OsNF-YB1-VC155 (protein, UniProt Q6Z348 1-186) MAGNKKRGGRNMDQVKKAAVRSDGVGGSATNAELPMANLVRLIKKVLPGKAKIGGAAKGLTHDCAVEFVGFVGDEASEKAKAEHRRTVAPEDYLGSFGDLGFDRYVDPMDAYIHGYREFERAGGNRRVAPPPPAAATPLTPGGPTFTDAELQFLRSVIPSRSDDEYSGSSPAIGGYGYGYGYGKNM | binding [3]: binds
